From PMC11536954

The chains behind the UniProt entries cited, without tags or fusion partners.
UniProt P78527: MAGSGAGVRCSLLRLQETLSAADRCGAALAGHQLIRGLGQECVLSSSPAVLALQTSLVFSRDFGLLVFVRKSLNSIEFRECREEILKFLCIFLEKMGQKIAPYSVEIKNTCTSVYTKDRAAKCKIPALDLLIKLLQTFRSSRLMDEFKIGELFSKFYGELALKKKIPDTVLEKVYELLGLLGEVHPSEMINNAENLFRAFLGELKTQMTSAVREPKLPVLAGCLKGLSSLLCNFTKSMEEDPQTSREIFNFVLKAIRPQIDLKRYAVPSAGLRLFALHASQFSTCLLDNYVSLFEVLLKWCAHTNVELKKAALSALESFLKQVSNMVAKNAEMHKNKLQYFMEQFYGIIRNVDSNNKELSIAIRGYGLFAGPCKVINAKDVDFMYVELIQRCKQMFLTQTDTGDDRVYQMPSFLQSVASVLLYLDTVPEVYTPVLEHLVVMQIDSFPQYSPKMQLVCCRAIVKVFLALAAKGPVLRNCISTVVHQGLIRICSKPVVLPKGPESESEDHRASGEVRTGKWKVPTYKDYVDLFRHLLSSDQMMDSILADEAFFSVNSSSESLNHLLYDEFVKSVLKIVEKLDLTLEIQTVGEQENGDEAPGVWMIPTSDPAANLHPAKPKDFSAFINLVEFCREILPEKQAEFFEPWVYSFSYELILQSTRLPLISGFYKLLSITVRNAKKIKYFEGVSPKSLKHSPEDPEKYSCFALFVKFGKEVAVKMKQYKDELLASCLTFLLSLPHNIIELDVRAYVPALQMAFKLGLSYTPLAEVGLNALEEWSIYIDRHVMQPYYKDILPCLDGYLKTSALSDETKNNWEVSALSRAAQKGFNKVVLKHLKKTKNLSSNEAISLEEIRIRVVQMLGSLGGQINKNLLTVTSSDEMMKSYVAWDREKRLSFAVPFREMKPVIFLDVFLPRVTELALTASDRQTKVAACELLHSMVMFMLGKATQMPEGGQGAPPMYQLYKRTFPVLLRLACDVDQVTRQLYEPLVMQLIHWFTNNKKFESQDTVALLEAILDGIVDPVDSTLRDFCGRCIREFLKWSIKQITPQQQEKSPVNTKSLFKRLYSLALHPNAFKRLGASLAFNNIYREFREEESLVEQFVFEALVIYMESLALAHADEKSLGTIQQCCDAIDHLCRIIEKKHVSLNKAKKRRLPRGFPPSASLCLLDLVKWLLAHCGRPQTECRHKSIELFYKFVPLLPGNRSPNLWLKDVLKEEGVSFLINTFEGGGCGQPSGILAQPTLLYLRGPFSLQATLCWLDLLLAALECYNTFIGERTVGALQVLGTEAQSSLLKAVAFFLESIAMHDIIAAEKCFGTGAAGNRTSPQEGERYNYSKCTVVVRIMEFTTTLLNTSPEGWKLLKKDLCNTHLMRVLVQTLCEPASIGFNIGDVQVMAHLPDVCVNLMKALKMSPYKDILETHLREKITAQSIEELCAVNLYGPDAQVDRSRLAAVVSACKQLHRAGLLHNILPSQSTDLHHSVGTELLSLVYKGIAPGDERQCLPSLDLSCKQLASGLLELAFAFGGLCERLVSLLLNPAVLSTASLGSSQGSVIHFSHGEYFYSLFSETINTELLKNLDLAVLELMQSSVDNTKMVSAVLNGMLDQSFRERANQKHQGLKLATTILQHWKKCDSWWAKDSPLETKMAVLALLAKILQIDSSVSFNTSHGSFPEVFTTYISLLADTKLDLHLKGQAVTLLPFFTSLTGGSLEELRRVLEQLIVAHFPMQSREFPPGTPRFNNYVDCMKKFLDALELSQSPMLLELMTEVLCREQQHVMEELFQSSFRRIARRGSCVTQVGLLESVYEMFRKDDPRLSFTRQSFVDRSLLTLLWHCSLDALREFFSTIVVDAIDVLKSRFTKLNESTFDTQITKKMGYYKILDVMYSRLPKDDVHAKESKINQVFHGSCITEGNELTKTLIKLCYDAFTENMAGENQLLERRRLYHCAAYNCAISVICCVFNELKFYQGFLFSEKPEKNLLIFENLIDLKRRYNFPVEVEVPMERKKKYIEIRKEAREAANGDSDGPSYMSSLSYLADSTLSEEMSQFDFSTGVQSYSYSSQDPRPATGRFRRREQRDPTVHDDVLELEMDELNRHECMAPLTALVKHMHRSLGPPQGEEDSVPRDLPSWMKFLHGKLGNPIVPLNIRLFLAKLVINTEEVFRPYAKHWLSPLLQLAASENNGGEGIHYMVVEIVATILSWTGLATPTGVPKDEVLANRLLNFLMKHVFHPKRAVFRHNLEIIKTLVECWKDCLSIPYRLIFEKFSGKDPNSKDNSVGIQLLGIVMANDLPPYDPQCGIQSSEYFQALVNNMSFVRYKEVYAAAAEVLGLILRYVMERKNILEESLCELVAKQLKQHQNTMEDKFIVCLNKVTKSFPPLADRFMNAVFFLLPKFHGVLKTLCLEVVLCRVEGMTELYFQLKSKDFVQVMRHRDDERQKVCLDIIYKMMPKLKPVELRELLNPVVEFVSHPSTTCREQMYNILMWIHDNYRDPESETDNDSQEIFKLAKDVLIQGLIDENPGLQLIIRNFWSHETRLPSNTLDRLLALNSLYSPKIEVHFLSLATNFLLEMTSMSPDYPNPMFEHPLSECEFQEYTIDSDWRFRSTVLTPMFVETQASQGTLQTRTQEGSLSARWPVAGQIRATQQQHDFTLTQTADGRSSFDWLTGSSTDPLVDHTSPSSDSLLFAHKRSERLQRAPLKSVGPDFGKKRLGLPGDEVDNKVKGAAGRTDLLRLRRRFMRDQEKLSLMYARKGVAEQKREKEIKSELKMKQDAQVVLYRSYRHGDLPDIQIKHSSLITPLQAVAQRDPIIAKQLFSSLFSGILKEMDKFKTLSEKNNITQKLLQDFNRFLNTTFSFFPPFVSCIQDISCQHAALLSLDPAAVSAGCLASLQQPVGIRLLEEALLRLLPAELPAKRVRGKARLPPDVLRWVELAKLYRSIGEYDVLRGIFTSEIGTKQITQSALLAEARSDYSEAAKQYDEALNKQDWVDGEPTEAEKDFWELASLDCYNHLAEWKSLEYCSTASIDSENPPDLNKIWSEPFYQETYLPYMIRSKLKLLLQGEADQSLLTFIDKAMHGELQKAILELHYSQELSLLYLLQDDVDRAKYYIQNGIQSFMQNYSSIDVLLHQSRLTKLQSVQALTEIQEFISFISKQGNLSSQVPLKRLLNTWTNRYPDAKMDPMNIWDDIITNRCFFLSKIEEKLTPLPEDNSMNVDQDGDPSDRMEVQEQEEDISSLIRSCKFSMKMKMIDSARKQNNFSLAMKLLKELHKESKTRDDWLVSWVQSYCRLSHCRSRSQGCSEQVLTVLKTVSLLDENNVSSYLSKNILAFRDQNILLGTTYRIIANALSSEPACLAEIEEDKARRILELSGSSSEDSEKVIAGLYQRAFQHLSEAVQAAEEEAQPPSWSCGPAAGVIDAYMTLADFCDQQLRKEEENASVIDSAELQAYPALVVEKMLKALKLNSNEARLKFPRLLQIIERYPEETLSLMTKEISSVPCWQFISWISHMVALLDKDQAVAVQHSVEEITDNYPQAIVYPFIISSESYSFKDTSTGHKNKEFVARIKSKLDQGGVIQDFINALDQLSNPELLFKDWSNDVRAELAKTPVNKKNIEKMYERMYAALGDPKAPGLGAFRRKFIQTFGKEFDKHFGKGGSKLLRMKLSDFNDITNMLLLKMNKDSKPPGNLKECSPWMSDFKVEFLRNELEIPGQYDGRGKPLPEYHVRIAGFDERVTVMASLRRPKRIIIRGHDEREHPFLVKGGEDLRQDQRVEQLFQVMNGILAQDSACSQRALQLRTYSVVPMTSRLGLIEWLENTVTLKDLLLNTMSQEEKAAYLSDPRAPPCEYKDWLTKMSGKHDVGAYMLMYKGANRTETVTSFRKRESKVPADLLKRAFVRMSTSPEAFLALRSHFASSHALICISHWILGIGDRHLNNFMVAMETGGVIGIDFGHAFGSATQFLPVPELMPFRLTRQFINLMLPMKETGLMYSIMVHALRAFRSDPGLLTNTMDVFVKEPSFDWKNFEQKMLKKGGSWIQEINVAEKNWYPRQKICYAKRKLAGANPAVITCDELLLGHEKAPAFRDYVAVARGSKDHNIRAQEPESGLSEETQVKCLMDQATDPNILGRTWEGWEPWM
UniProt P35222: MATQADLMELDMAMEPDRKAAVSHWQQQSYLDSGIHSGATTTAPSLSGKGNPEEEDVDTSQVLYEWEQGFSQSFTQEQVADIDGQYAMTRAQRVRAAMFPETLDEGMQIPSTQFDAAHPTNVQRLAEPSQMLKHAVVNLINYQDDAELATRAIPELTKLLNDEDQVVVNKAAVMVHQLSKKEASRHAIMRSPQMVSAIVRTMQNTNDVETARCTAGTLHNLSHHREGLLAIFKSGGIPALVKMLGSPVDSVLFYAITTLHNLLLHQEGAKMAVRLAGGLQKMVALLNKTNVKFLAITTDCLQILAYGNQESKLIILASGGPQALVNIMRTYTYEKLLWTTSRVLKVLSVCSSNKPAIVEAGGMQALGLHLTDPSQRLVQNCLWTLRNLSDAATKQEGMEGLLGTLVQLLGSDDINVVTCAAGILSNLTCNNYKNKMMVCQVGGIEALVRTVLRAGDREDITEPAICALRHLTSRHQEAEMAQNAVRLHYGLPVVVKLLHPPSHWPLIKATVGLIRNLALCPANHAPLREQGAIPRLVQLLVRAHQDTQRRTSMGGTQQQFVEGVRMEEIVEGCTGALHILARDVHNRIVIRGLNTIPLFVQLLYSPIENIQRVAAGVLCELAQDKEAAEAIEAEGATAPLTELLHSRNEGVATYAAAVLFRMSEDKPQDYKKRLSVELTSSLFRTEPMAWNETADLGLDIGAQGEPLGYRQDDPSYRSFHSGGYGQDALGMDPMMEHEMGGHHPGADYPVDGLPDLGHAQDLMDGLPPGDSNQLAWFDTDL

biological target: T1, exogenous PORCN-WT of PORCN-WT HT1080 cells (bait of the mass spectrometry) (UniProt Q9H237); assay: affinity purification with mass spectrometry; exogenous PORCN immunoprecipitated from PORCN-WT or PORCN-ΔNLS HT1080 cells before and after IR; RIPA lysate, protein A/G Sepharose, silver-stained SDS-PAGE, LC-MS/MS
T1 sequence: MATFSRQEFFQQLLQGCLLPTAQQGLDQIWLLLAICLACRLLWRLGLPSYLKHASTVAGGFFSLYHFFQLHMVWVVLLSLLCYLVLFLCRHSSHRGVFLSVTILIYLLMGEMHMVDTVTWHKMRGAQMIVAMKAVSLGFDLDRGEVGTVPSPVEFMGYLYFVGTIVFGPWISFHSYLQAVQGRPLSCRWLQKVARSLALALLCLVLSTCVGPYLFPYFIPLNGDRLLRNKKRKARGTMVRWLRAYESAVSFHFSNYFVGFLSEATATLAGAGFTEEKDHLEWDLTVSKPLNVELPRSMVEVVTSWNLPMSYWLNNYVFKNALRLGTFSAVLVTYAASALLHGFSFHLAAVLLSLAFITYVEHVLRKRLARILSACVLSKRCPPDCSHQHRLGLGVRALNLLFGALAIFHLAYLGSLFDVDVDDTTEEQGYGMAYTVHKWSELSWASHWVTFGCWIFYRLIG

binding | Substance
binds | DNA-dependent protein kinase catalytic subunit (DNA-PKcs), endogenous (from UniProt P78527 1-4128) (enzyme)
binds | Ku70 (XRCC6), endogenous (from UniProt P12956 1-609)
binds | Ku80 (XRCC5), endogenous (from UniProt P13010 1-732)
binds | β-catenin, endogenous (from UniProt P35222 1-781)

Results are given in words; binding and its absence hold for the method and conditions named. Binding seen in cells or lysates may run through a third protein. These calls come from enrichment with a bait or labelling near it, and not all partners need be listed.
